The target in experiment [1] is T1, ORP4L/pVc-C1 (ORP4L fused to a Venus fragment) (UniProt Q969R2).
T1 sequence: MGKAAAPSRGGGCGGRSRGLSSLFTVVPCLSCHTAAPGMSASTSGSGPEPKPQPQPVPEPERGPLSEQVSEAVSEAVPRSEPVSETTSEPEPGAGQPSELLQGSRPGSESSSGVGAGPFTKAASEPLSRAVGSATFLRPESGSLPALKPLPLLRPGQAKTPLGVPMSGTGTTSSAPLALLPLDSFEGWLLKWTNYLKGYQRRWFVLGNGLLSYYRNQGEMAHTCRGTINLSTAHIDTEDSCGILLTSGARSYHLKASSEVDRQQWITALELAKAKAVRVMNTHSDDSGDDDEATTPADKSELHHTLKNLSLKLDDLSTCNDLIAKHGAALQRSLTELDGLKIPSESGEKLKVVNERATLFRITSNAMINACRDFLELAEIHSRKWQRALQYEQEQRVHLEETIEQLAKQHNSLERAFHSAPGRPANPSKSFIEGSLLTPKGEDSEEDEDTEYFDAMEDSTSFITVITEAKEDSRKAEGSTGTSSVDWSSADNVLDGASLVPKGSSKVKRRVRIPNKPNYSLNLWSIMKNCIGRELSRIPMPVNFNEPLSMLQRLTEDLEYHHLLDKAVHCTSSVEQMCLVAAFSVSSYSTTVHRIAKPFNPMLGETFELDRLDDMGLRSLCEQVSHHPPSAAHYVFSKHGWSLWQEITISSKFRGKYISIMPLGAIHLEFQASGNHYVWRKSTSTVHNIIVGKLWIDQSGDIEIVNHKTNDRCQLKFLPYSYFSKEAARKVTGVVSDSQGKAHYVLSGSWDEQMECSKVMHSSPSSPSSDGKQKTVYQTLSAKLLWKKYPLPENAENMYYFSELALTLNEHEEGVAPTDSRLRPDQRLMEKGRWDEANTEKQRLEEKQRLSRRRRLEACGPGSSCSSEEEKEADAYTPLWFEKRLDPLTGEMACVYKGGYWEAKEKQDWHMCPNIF
Briefly: split reporter; BiFC with Venus fragments in transfected Jurkat T-cells; read 24 or 36 h after transfection, with or without anti-CD3 (10 μg/ml, 5 min); confocal microscopy.

By UniProt entry, the sequences of proteins in these tests, tags left out. Where a name states a change or a piece, a line headed by the entry shows the natural chain unless it says otherwise.
UniProt Q01968: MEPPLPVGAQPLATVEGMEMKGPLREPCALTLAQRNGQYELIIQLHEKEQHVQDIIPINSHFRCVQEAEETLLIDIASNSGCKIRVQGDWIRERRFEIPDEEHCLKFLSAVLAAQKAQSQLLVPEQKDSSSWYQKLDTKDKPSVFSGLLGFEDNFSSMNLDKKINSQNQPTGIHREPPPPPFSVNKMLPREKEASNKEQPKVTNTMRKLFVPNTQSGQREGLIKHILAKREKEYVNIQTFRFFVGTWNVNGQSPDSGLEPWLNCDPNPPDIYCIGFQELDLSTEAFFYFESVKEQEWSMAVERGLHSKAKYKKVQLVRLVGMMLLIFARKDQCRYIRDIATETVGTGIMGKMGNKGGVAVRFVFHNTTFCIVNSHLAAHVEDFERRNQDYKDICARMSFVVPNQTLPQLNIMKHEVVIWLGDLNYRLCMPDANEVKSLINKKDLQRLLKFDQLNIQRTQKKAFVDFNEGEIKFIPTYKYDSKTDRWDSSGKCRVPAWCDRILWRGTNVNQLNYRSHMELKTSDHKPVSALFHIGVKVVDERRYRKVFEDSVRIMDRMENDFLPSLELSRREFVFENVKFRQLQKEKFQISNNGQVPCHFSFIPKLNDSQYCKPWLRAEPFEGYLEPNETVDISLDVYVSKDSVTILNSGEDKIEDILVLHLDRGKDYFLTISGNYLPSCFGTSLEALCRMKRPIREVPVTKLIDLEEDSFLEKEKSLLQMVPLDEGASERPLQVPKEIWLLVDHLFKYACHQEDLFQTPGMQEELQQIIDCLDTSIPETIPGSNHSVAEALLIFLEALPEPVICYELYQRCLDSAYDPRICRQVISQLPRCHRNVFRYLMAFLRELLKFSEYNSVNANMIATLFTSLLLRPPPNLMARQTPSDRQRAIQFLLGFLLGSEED

In experiment [2] the target is T2, GST-ORP4L (OSBP-related protein 4L, wildtype) (UniProt Q969R2).
T2 sequence: T1 sequence
In words: pull-down; GST or GST fusions from E. coli lysate held on glutathione beads; Jurkat T-cell lysate added, 4 °C overnight; three washes with lysis buffer; Western blot with anti-OCRL or anti-ORP4L; only the target purified. A general note: A western blot detects proteins with antibodies after separation by electrophoresis.

Experiment [3] deals with T3, full-length ORP4L in bait vector pGBKT7 (UniProt Q969R2).
T3 sequence: T1 sequence
Briefly: two-hybrid; bait in pGBKT7, prey in pGADT7, yeast strain AH109; growth on SD/4- and X-gal assay, 30 °C.

For experiment [4], the target named is full-length OCRL1 in bait vector pGBKT7 (human) (UniProt Q01968). The description is as above.
Experiment [5] addresses GST-OCRL (oculocerebrorenal syndrome of Lowe 1, wildtype) (human) (UniProt Q01968). In words: pull-down; GST or GST fusions from E. coli lysate held on glutathione beads; Jurkat T-cell lysate added, 4 °C overnight; three washes with lysis buffer; Western blot with anti-OCRL or anti-ORP4L; only the target purified.
The target of experiment [6] is endogenous OCRL of Jurkat T-cells (human (endogenous in Jurkat)) (UniProt Q01968). In words: co-IP; endogenous proteins in Jurkat T-cell lysate (50 mM Tris-Cl, 150 mM NaCl, 0.5 mM MgCl2, 10% glycerol, 0.5% Triton X-100, pH 8.0); precipitation with 5 μg OCRL antibody or control IgG, Protein G-agarose; blot for ORP4L and OCRL.

These are yes or no findings as the source states them, for the method shown. For part of these data: In cells and extracts the contact can be indirect. Some entries that bind do so weakly or less than the wild type. For part of these data: Tags and fused reporters may be left off the sequences shown.

As for “OCRL1/pVn-N1 (OCRL fused to a Venus fragment) (from UniProt Q01968 1-901)”, the binding result in experiment [1] is recorded as “binds”.
On to “OCRL protein in lysate of OCRL1-overexpressing Jurkat T-cells (from UniProt Q01968 1-901)”, for which the binding entry in experiment [2] was “binds”.
For “OCRL segment containing aa 564 to 901 in prey vector pGADT7 (from UniProt Q01968 564-901) (domain or fragment)”, the binding entry in experiment [3] is recorded as “binds”.
Turning to “endogenous OCRL of Jurkat T-cells (from UniProt Q01968 1-901)”, the binding result in experiment [2] is reported as “binds”.
With “full-length OCRL1 in prey vector pGADT7 (from UniProt Q01968 1-901)”, the binding result in experiment [3] is on record as “binds”.

B1: ORP4L segment containing aa 391 to 455 in prey vector pGADT7 (domain or fragment, UniProt Q969R2 391-455)
chain: YEQEQRVHLEETIEQLAKQHNSLERAFHSAPGRPANPSKSFIEGSLLTPKGEDSEEDEDTEYFDA
Consider B1, for which the binding entry in experiment [4] was “binds”.

B2: endogenous ORP4L of Jurkat T-cells (protein, UniProt Q969R2 1-916)
chain: T1 sequence
For the molecule B2, the binding result in experiment [5] and in experiment [6] was “binds” each time.

B3: full-length ORP4L in prey vector pGADT7 (protein, UniProt Q969R2 1-916)
chain: T1 sequence
Regarding B3, in experiment [4], the binding entry is on record as “binds”.

For the origin of these results see PMC10279916.
